57 compounds from PubChem BioAssay AID504375 (National Center for Advancing Translational Sciences (NCATS), 2011) can be followed below.

The chains behind the UniProt entries cited, without tags or fusion partners.
UniProt Q01196, whole entry, looked up: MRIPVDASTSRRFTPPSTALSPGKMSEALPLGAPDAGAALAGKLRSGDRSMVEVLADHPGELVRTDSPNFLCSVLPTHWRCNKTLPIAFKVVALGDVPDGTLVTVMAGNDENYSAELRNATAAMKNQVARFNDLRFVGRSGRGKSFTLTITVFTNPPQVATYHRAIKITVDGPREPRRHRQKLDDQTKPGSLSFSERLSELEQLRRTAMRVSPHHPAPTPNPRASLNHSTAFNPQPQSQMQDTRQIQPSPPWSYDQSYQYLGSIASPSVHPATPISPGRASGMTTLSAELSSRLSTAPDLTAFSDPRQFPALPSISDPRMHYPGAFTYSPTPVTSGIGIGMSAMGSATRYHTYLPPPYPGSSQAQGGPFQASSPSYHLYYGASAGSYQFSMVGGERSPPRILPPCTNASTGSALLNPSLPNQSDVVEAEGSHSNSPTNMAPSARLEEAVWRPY
UniProt Q13951, whole entry, looked up: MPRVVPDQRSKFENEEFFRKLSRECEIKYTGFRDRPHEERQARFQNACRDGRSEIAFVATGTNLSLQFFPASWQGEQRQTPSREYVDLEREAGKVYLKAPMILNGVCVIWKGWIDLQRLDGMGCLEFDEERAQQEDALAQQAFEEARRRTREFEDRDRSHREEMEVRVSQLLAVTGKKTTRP

Screen size: about 1,600 compounds; about 25 (2%) were called active. About 7% were inconclusive and are not listed. Calls come from the whole dose curve; as a rule, active = well fitted inhibition curve with a large enough effect; inconclusive = small, poorly fitted or top-dose-only effect, or effect the other way; inactive = no such curve, though single readings can be large or run the other way. The list shows a part of the results.
% is set by controls: 0 for no effect and ±100 for the full control effect; potency is the fitted concentration of half-maximal effect.

For this assay, the target named is Runt-related transcription factor 1 (Homo sapiens) + Core-binding factor subunit beta (Homo sapiens) (UniProt Q01196+Q13951). Put plainly: qHTS Assay for Compounds Blocking the Interaction Between CBF-beta and RUNX1 for the Treatment of Acute Myeloid Leukemia: Hit Validation with Orthogonal Assay. The settings on record: CBFbeta-RUNX1 binding orthogonal assay, biochemical; series mostly up to 41 µM; activity change, negative = inhibition: at the top concentration. The source says:
NIH Chemical Genomics Center [NCGC]
NIH Molecular Libraries Probe Production centers Network [MLPCN]
Assay Submitter (PI): Paul Liu
Core Binding Factor (CBF) abnormalities are associated with 20-25% of all acute myeloid leukemias (AML), of which 5-10% are further sub classified as acute myelomonocytic leukemia with eosinophilia, also known as M4Eo in the FAB classification scheme. This subtype of leukemia is usually associated with chromosome 16 inversion (p13:q22). Chromosome 16 inversion results in formation of the fusion oncogene CBFB-MYH11, which encodes the fusion protein CBF-beta-SMMHC.
It has been hypothesized that the interference of CBF-beta and RUNX1 binding could have therapeutic implications for patients with CBF mediated leukemias. We developed a CBF-beta and RUNX1 binding assay in AlphaScreenTM format and optimized it for high throughput screening to search for inhibitors. The goal of this project is to screen MLPCN's compound collection (MLSMR) for identifying the inhibitors of the interaction between CBF-beta and RUNX1 proteins as research probes. If these probes work well in the animal models, the ultimate goal of this project is to development a new drug treatment for this disease.
This assay can not be used to assess how apparent inhibitors interfere with protein binding, and whether inhibitors specifically bind to either protein. Disruption of this protein-protein interaction, through any mechanism, is the intended target activity.
The present data set was run to confirm the activity of hits from the primary screen using an orthogonal assay technology for measuring protein-protein interaction disruption.
A TR-FRET (time resolved fluorescence resonance energy transfer) assay was performed using the same assay buffer, protein concentrations and incubation times as described previously in the AlphaScreen assay, except that terbium (Tb+) labeled anti-his-antibody and XL665 linked streptavidin were used to capture the binding signal. The Tb+ labeled anti-his-antibody captures His(6)-CBF and XL665 linked streptavidin binds to biotin-RUNX1. The binding of RUNX1 to CBFbrings Tb+ and XL665 to proximity resulting in a TR-FRET signal. Briefly, in a white 384-well plate, 10 µl/well of mixture of biotin-RUNX1 and His(6)-CBFwere incubated with 10 µl/well buffer (positive control) or 10 µl/well compounds (negative control) for 20 min followed by an addition of 10 µl/well of Tb+ labeled anti-his(6)-antibody and XL665 linked streptavidin. After 90 min of incubation in the dark, the assay plate was measured in the Envision plate reader using TR-FRET detection mode. For the 1536-well plate format, 3 µl/well mixture of biotin-RUNX1 and His(6)-CBF (30 nM per protein) was incubated with 23 nl/well compound (dissolved in 100% DMSO) or the equivalent DMSO concentration (positive control) for 30 min followed by the addition of 1 µl/well of 0.44 ng Tb+ labeled anti-his(6)-antibody and 5 nM streptavodin-XL665. After 90 min of incubation, the assay plate was measured in the Envision plate reader.
The TR-FRET assay for detecting interaction between HIV-I Tat and […] was similarly performed with the recombinant full-length HIV-I Tat CLADE B and HIV-I Tat Biotin conjugated proteins supplied by Diatheva (Fano, Italy). Briefly, the His-CBF and Biotin-RUNX1 complex at a working concentration of 83.3 nM per protein were pre-incubated in assay buffer for 10 minutes on ice. Then HIV-I Tat or unlabeled CBF were added to reach final concentrations (Supplementary Figure 4b) and incubated for 5 minutes. Finally anti-His antibody and streptavidin-XL665 at a final concentration of 2.2 ng and 5 nM, respectively, were added to the plate, which was incubated for 1 hr prior to reading on the PerkinElmer Envision plate reader.
Keywords: MLSMR, MLPCN, NIH Roadmap, qHTS, NCGC, Core binding factor, CBF, CBF-beta, Acute myeloid leukemia
In general terms: qHTS replaces the single test concentration by a dilution series.
With `CC1(C)CC(=O)c2cnc(N3CCc4ccccc43)nc2C1`, the “activity change, negative = inhibition” value is inactive: -1.31%. On the same count and under the same terms, to `Cc1cc(C)nc(S/C=C/C(=O)c2ccccc2)n1` belongs inactive: -1.69%; to `O=C(c1ccc(Cl)cc1Cl)N1CCSCC1`, inactive: 17.6%. Consider `N[C@H](Cc1ccc(O)c(O)c1)C(=O)O`, for which the Potency was active: 7080 nM. `Cc1onc(-c2c(F)cccc2Cl)c1C(=O)c1ccc(F)cc1`: the “activity change, negative = inhibition” value was inactive: 13.7%. For the compound `CCOC(=O)c1cn2nc(Oc3ccc(NC(C)=O)cc3)ccc2n1`, the “activity change, negative = inhibition” value was inactive: 4.2%. Same read-out and setting: the value for `CC(C)(C)OC(=O)NCCCCCC(=O)N/N=C/c1coc2ccccc2c1=O` was inactive: 11.4%.

For the compound `S=c1[nH]nc([C@@H]2C[C@H]2c2ccccc2)n1-c1ccccc1Cl`, the “activity change, negative = inhibition” value was inactive: -7.38%. `Cc1cc(-n2cnc(-c3cn[nH]c3C)n2)no1`: the “activity change, negative = inhibition” value is inactive: 3.36%. Still for that read-out and setting: the value for `CC(=O)Nc1ccc(CC#N)cc1` was inactive: 10.7%; that for `CC1=C(C)Cc2c(OC(=O)c3ccccc3)ccc(OC(=O)c3ccccc3)c2C1` was inactive: 4.4%; that for `Cn1nc(-c2ccccc2)cc1NC(=O)CCCC(=O)O` was inactive: -1.31%.

For `COc1ccc([N+](=O)[O-])c(S(=O)(=O)c2ccc(Cl)cc2)n1`, the “activity change, negative = inhibition” value is inactive: 32.4%.

In the case of `O=C(O)c1ccccc1N/N=C/c1cc(Br)cc(Br)c1O`, the “activity change, negative = inhibition” value is inactive: -2.4%. For the compound `CC1CC(=O)Nc2ccccc2N1S(=O)(=O)c1ccc(Cl)cc1` (configuration not stated), the “activity change, negative = inhibition” value was inactive: -2.07%. Turning to `CCOc1ccc(NC(=O)Nc2cc(C(C)C)c(O)cc2C)cc1`, the “activity change, negative = inhibition” value was inactive: -4.8%. `CC(C)(C)c1ccc(Oc2ccc(NC(=O)c3cccs3)cn2)cc1`: the “activity change, negative = inhibition” value is inactive: -4.4%.

In the case of `CCNC(=O)COC(=O)c1cc(S(=O)(=O)N2CCCCC2)ccc1C`, the “activity change, negative = inhibition” value was inactive: -1.11%. As to `Cc1ccc(C(=O)CSc2nnc(-c3snnc3C)n2C2CC2)cc1`, the “activity change, negative = inhibition” value is inactive: -10.2%.

As for `Cc1cc(NS(=O)(=O)c2ccc(NC(=O)CSc3nc4ncc(Cl)cc4[nH]3)cc2)nc(C)n1`, the “activity change, negative = inhibition” value was inactive: -3.67%. Take `COC(=O)c1sccc1S(=O)(=O)Nc1ccc(C)cc1`: the “activity change, negative = inhibition” value was inactive: 6.18%. Turning to `Cc1ccncc1C(N)=O`, the “activity change, negative = inhibition” value is inactive: -8.07%. As for `COc1ccc(OC)c(/C=N/NC(=O)c2cc3c(OC)cc(OC)cc3[nH]2)c1`, the “activity change, negative = inhibition” value was inactive: -11.4%. In the case of `CN1CCN(C(=O)Nc2cccc(-c3ccccc3)c2)CC1`, the “activity change, negative = inhibition” value was inactive: 6.34%. Take `CCN(CC)S(=O)(=O)c1cccc(NC2=NCCCCC2)c1`: the “activity change, negative = inhibition” value was inactive: -3.88%. Regarding `CCOC(=O)/C(C#N)=C/Nc1ccccc1OC(F)(F)F`, the “activity change, negative = inhibition” value is inactive: -8.6%. On to `Cc1ccc(NC(=S)N(C)C)cc1C`, for which the “activity change, negative = inhibition” value is inactive: 6.41%. For `Cc1c(-c2ccc(Br)cc2)[n+](=O)c2c(n1[O-])CCCCC2`, the “activity change, negative = inhibition” value was inactive: 8.34%. With `COc1cccc(C(=O)NNC2=C(C(=O)C(F)(F)F)CCC2)c1`, the “activity change, negative = inhibition” value is inactive: 6.85%.

For the compound `CCN(CC)c1ccc(/C=N/N2CCN(Cc3ccccc3Cl)CC2)c(O)c1`, the “activity change, negative = inhibition” value was inactive: 3.34%. As for `O=C(O)C[C@@H]1C(=O)O[C@@H]2C(COC(=O)c3cc(O)c(O)c(O)c3)O[C@@H](OC(=O)c3cc(O)c(O)c(O)c3)[C@@H](OC(=O)c3cc(O)c(O)c4c3[C@H]1[C@H](O)C(=O)O4)[C@H]2OC(=O)c1cc(O)c(O)c(O)c1` (some centres not stated), the Potency was active: 89.1 nM. For the compound `O=C(Nc1nnc(C2CC2)s1)c1cccnc1Oc1ccc(Cl)cc1`, the “activity change, negative = inhibition” value was inactive: -9.76%.

With `Cn1c(=O)c([N+](=O)[O-])c(NCc2ccc3c(c2)OCO3)c2ccccc21`, the “activity change, negative = inhibition” value was inactive: 20.7%. The same measure, in the same setting: the value for `CCOC(=O)N1CCc2c(sc(NC(=O)CN3CCOCC3)c2C#N)C1` was inactive: -10%. For the compound `CCc1cccc(NC(=O)CCCCCC2NC(=O)NC2C)c1` (configuration not stated), the Potency was active: 56.2 nM. As for `CCN(CC)C(=S)SCC(=O)Nc1ncc2c(n1)CCCC2=O`, the “activity change, negative = inhibition” value is inactive: 3.58%.

With `Cc1ccc(S(=O)(=O)N2CCCCC2)cc1NC(=O)Cn1cnnn1`, the “activity change, negative = inhibition” value was inactive: 0.33%. As for `O=c1[nH]nc(N/N=C/c2ccc(Cl)cc2Cl)c(=O)[nH]1`, the “activity change, negative = inhibition” value is inactive: 28.6%. As for `O=C(NNC(=S)Nc1ccccc1C(F)(F)F)C1CC1`, the “activity change, negative = inhibition” value is inactive: 1.1%.

As to `CCCN(CCC)C(=O)CC(c1ccccc1)c1ccco1` (configuration not stated), the “activity change, negative = inhibition” value is inactive: -11.8%. With `COc1ccc2[nH]c(C(=O)N3CCCN(Cc4ccc(F)cc4)CC3)cc2c1`, the “activity change, negative = inhibition” value was inactive: 13.2%.

For the compound `Cn1cnnc1SCc1ccccc1[N+](=O)[O-]`, the “activity change, negative = inhibition” value was inactive: 5.82%.

Turning to `CCOC(=O)c1cn[nH]c1C(F)(F)F`, the “activity change, negative = inhibition” value was inactive: -3.66%. In the case of `Cc1cc(C)c(C#N)c(SCCN2CCOCC2)n1`, the “activity change, negative = inhibition” value was inactive: 11.6%.

Regarding `O=C(CSc1n[nH]c(=O)[nH]c1=O)N1CCCCCC1`, the “activity change, negative = inhibition” value is inactive: 14.5%. Regarding `O=C(CSc1nc(O)c(Cc2ccccc2)c(=O)[nH]1)c1ccccc1`, the “activity change, negative = inhibition” value is inactive: 6.85%.

Consider `Nc1nccc(/C=C/c2ccc(Cl)cc2)n1`, for which the “activity change, negative = inhibition” value is inactive: 4.36%. Same read-out and setting: the value for `Cn1cnc2c(N/N=C/c3cccs3)ncnc21` was inactive: 23.8%; that for `CCN1CCN(c2nc3ccccn3c(=O)c2/C=C(\C#N)S(=O)(=O)c2ccccc2)CC1` was inactive: 23.5%.

As to `CCN(CC)c1ccc(/C=N/NC(=O)c2ccco2)c(O)c1`, the “activity change, negative = inhibition” value is inactive: 35.9%. With `Cc1ccc(Sc2ncccc2NC(=O)c2ccccc2Cl)cc1`, the “activity change, negative = inhibition” value was inactive: 3.33%. `COc1ccccc1CC(=O)Nc1cccc(C(=O)Nc2nccs2)c1`: the “activity change, negative = inhibition” value is inactive: -0.673%.

For `S=c1[nH]nc(-c2ccccc2Cl)n1/N=C/C=C/c1ccco1`, the “activity change, negative = inhibition” value is inactive: -11.9%. On to `C=C1CC[C@H](O)C/C1=C/C=C1\CCC[C@]2(C)[C@H]1CC[C@H]2[C@@H](C)CCCC(C)C`, for which the “activity change, negative = inhibition” value was inactive: 3.52% [at 82.4 µM]. For `Brc1csc2ncccc12`, the “activity change, negative = inhibition” value was inactive: 2.37%. Turning to `CCOc1cc(C(=O)NCCc2ccc(S(N)(=O)=O)cc2)cc(OCC)c1OCC`, the “activity change, negative = inhibition” value was inactive: 15.1%.

With `CC(C)Nc1cc(C(C)(C)C)nc2c(-c3ccccc3)cnn12`, the “activity change, negative = inhibition” value is inactive: 4.12%.
